The target in assay [1] is Syntaxin 17 (not stated (mammalian)) (UniProt P56962). Description: condition: proteoliposomes carrying a total of 1 μM cargo; without PIPs or Arf1; liposome flotation assay; proteoliposomes (Golgi-mimicking lipid mix) carrying a total of 1 μM cargo, incubated with purified AP-1 or AP-3 complex, floated on a sucrose step gradient; top fraction TCA-precipitated, SDS-PAGE, band of Apl4 or Apl5 quantified as percent of load; in Fig. 6E without PIPs or Arf1, in Fig. 6D also with Arf1 and PI3P or PI4P; 150 mM NaCl, 20 mM HEPES/NaOH pH 7.4, 1 mM MgCl2, 10 % glycerol, 60 min 4 °C; both purified.

The chains behind the UniProt entries cited, without tags or fusion partners. Where a name states a change or a piece, a line headed by the entry shows the natural chain unless it says otherwise.
UniProt P56962: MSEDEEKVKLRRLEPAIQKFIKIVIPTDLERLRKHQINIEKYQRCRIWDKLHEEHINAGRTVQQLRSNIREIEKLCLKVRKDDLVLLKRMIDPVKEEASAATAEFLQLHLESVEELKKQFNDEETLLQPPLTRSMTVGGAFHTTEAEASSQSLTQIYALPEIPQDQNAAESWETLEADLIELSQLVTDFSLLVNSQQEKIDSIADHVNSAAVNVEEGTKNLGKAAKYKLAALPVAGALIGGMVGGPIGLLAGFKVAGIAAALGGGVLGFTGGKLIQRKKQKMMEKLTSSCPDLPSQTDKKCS
UniProt Q08951: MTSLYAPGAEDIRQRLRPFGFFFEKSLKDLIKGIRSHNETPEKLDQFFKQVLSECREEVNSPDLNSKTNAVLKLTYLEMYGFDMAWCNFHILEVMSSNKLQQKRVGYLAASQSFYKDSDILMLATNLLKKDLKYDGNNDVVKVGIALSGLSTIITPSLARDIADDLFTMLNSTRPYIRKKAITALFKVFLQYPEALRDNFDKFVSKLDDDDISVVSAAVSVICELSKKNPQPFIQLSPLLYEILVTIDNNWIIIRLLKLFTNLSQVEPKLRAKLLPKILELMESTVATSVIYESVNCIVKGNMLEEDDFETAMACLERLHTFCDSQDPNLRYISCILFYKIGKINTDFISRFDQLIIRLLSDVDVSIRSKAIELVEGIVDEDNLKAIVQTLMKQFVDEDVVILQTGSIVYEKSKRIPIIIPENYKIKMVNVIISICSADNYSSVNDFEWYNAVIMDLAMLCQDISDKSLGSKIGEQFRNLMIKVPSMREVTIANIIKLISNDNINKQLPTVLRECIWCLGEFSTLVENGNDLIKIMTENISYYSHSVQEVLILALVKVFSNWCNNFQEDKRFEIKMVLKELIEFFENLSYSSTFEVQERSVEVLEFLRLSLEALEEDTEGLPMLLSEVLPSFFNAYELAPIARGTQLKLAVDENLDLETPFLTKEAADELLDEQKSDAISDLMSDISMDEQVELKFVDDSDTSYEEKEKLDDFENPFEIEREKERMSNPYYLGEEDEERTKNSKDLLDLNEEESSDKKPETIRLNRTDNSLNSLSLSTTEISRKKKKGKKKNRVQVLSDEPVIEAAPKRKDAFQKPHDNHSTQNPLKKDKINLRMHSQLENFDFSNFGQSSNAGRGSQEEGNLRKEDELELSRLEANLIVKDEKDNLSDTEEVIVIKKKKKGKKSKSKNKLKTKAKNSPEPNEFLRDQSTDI

Assay [2] addresses T1, N-myristoylated Arf1, loaded with GTP or GTPγS by Sec7ΔC (UniProt P11076).
T1 sequence (chain, N-myristoylated (confirmed by mass spectrometry)): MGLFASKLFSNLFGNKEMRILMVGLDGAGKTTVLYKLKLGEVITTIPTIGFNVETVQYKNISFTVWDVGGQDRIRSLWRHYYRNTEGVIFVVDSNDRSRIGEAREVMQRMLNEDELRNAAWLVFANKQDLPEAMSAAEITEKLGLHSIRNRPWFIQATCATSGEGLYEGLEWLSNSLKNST
Description: liposome flotation assay; empty liposomes (Golgi-mimicking lipid mix, with or without PI3P or PI4P) incubated with increasing Arf1, Sec7 GEF and GTP, then purified AP-1 or AP-3 complex; floated on a sucrose step gradient; band of Apl4 or Apl5 in the top fraction quantified; both purified.

The target of assay [3] is T1, N-myristoylated Arf1, loaded with GTP or GTPγS by Sec7ΔC. Description: single-molecule TIRF microscopy on polymer-supported membranes; polymer-supported membranes (Golgi mixture with 1 mol% PI4P) with or without Arf1 (10 nM), Sec7ΔC (10 nM) and 400 μM GTPγS, or reconstituted Vam3; GFP-tagged AP-3 (2 nM) labelled with anti-GFP nanobody-Dy647; room temperature; monitored 45 min; both purified.

No constants are given. Whether binding was seen depends on the method and setting. Some results given as binding are weak or reduced against the parent protein; the word gives no strength.

For “full-length yeast AP-3 complex (from UniProt Q08951 1-932; P46682 1-809; P38153 1-483; P47064 1-194)”, the binding entry in assay [1] is on record as “no binding”; in assay [2], “binds weakly”. With “GFP-tagged AP-3 complex (Apl6 tagged C-terminally with mGFP) (from UniProt Q08951 1-932; P46682 1-809; P38153 1-483; P47064 1-194)”, the binding result in assay [3] is on record as “binds”.

The values above are taken from PMC8591511, “Flexible open conformation of the AP-3 complex explains its role in cargo recruitment at the Golgi” (The Journal of Biological Chemistry, 2021).
